Measurements reported in PubChem BioAssay AID1259254 (NCATS, 2017).
Screen: 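Finding genes that stop cells copying their DNA twice in one cycle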 (primary screen). System: human HCT116 colorectal cancer cells. Reagent: single siRNA against human genes. Timing: 3 days. Measured: 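Imaged Hoechst DNA stain sorts each cell into a cycle phase by DNA amount; per plate, G2 fraction set to 0% for non-targeting and 100% for GMNN siRNA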. Reading the numbers: G2 robust z-score and G2 cells, % of GMNN control: higher = more G2 cells, more excess DNA replication. Rule for the call: 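An siRNA counts as active if its G2 robust z-score lies at least 5 MADs above the screen median; here such calls match roughly 38% of GMNN control or more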.
The whole screen tested about 59,000 reagents; shown is a part drawn at random. About 1,550 of them (2.6%) count as active. 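G2 share is only a proxy for re-replication; each gene was hit by three separate siRNAs, and active genes were retested.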 Reagents against one gene are numbered here. Further read-outs or replicates are left out here. No sequences are given here. Not stated in the record: the amount of reagent.

Depletion of MCCC2 (methylcrotonyl-CoA carboxylase subunit 2) #1 came out at: G2 robust z-score -0.014; G2 cells, % of GMNN control 2.87; inactive.
Depletion of MCCC2 (methylcrotonyl-CoA carboxylase subunit 2) #2 resulted in: G2 robust z-score -0.473; G2 cells, % of GMNN control -0.362; inactive.
MCCC2 (methylcrotonyl-CoA carboxylase subunit 2) #3 showed G2 robust z-score -0.914; G2 cells, % of GMNN control -3.46; inactive.
For RPS9 (ribosomal protein S9) #1 the deposit lists G2 robust z-score 4.38; G2 cells, % of GMNN control 33.8; inactive.
Against RPS9 (ribosomal protein S9) #2, the values are G2 robust z-score 4.48; G2 cells, % of GMNN control 34.5; inactive.
Knock-down of RPS9 (ribosomal protein S9) #3 gave: G2 robust z-score 3.9; G2 cells, % of GMNN control 30.4; inactive.
For LYZL4 (lysozyme like 4) #1, the values are G2 robust z-score 1; G2 cells, % of GMNN control 10; inactive.
LYZL4 (lysozyme like 4) #2 gave G2 robust z-score -0.494; G2 cells, % of GMNN control -0.509; inactive.
Knock-down of LYZL4 (lysozyme like 4) #3 resulted in: G2 robust z-score 0.465; G2 cells, % of GMNN control 6.24; inactive.
With knock-down of CLDN2 (claudin 2) #1 the results were G2 robust z-score -0.334; G2 cells, % of GMNN control 0.618; inactive.
Depletion of CLDN2 (claudin 2) #2 gave: G2 robust z-score 3.03; G2 cells, % of GMNN control 24.3; inactive.
Depletion of CLDN2 (claudin 2) #3 resulted in: G2 robust z-score -0.704; G2 cells, % of GMNN control -1.99; inactive.
NBPF9 (NBPF member 9) #1 gave G2 robust z-score -0.238; G2 cells, % of GMNN control 1.29; inactive.
With knock-down of NBPF9 (NBPF member 9) #2, the screen gave G2 robust z-score -0.974; G2 cells, % of GMNN control -3.89; inactive.
Against NBPF9 (NBPF member 9) #3, the entry reads G2 robust z-score -1.08; G2 cells, % of GMNN control -4.62; inactive.
NIPA2 (NIPA magnesium transporter 2) #1 scored G2 robust z-score 0.865; G2 cells, % of GMNN control 9.05; inactive.
NIPA2 (NIPA magnesium transporter 2) #2 scored G2 robust z-score -0.92; G2 cells, % of GMNN control -3.5; inactive.
NIPA2 (NIPA magnesium transporter 2) #3 scored G2 robust z-score -0.884; G2 cells, % of GMNN control -3.25; inactive.

2 entries from above, reformatted.
{"Gene":"MCCC2 (methylcrotonyl-CoA carboxylase subunit 2)","reagent":2,"G2 robust z-score":-0.473,"G2 cells, % of GMNN control":-0.362,"activity call":"inactive"}
{"Gene":"MCCC2 (methylcrotonyl-CoA carboxylase subunit 2)","reagent":3,"G2 robust z-score":-0.914,"G2 cells, % of GMNN control":-3.46,"activity call":"inactive"}

More records:
With knock-down of GPBAR1 (G protein-coupled bile acid receptor 1) #1, the screen gave G2 robust z-score -0.32; G2 cells, % of GMNN control 0.718; inactive.
After knock-down of GPBAR1 (G protein-coupled bile acid receptor 1) #2 the results were G2 robust z-score 2.39; G2 cells, % of GMNN control 19.8; inactive.
With knock-down of GPBAR1 (G protein-coupled bile acid receptor 1) #3 the results were G2 robust z-score 2.11; G2 cells, % of GMNN control 17.8; inactive.
IFI30 (IFI30 lysosomal thiol reductase) #1 showed G2 robust z-score 0.467; G2 cells, % of GMNN control 6.25; inactive.
For IFI30 (IFI30 lysosomal thiol reductase) #2, the values are G2 robust z-score 3.42; G2 cells, % of GMNN control 27; inactive.
IFI30 (IFI30 lysosomal thiol reductase) #3 scored G2 robust z-score 0.437; G2 cells, % of GMNN control 6.05; inactive.
Knock-down of LGALS9B (galectin 9B) #1 gave: G2 robust z-score 4.68; G2 cells, % of GMNN control 35.9; inactive.
Depletion of LGALS9B (galectin 9B) #2 came out at: G2 robust z-score 1.4; G2 cells, % of GMNN control 12.8; inactive.
LGALS9B (galectin 9B) #3 scored G2 robust z-score -0.657; G2 cells, % of GMNN control -1.66; inactive.
With knock-down of NPM2 (nucleophosmin/nucleoplasmin 2) #1, the screen gave G2 robust z-score -0.627; G2 cells, % of GMNN control -1.44; inactive.
Depletion of NPM2 (nucleophosmin/nucleoplasmin 2) #2 resulted in: G2 robust z-score -0.713; G2 cells, % of GMNN control -2.05; inactive.
NPM2 (nucleophosmin/nucleoplasmin 2) #3 gave G2 robust z-score 2.85; G2 cells, % of GMNN control 23; inactive.
